These are yes or no findings as the source states them, for the method shown. In cells and extracts the contact can be indirect. These calls come from enrichment with a bait or labelling near it, and not all partners need be listed. Sequences can lack the tags named with a protein.
T1: SBSPON-3×Flag (Somatomedin B and Thrombospondin Type 1 Domain Containing), stably overexpressed by lentivirus (human) (UniProt Q8IVN8)
T1 sequence (chain, N-glycosylation at Asn227): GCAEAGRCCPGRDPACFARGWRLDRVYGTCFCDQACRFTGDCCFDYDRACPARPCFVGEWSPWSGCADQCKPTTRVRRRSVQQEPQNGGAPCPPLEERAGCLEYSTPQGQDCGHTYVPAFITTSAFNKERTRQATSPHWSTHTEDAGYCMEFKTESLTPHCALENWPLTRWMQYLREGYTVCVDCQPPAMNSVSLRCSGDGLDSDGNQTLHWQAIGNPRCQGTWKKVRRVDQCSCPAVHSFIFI

By UniProt entry, the sequences of proteins in these tests, tags left out. Residues count along the entry.
UniProt P11021, residues 19-654: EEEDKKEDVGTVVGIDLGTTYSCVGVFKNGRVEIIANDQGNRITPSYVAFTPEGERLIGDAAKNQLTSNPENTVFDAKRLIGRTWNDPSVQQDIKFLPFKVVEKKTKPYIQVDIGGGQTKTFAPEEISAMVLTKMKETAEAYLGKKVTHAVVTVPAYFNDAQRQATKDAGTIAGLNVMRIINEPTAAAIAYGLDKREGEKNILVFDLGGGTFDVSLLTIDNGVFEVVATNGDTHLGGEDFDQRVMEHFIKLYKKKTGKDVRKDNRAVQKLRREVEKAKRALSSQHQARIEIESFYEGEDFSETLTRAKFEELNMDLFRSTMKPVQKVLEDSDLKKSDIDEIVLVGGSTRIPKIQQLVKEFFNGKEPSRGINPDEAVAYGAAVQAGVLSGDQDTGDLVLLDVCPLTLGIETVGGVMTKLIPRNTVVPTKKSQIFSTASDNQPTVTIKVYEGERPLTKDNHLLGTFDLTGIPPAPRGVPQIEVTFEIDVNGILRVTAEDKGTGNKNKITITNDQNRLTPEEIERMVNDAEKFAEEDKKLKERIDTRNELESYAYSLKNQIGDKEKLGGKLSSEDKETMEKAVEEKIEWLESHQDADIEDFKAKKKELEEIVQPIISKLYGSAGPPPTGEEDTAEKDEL
UniProt P13010: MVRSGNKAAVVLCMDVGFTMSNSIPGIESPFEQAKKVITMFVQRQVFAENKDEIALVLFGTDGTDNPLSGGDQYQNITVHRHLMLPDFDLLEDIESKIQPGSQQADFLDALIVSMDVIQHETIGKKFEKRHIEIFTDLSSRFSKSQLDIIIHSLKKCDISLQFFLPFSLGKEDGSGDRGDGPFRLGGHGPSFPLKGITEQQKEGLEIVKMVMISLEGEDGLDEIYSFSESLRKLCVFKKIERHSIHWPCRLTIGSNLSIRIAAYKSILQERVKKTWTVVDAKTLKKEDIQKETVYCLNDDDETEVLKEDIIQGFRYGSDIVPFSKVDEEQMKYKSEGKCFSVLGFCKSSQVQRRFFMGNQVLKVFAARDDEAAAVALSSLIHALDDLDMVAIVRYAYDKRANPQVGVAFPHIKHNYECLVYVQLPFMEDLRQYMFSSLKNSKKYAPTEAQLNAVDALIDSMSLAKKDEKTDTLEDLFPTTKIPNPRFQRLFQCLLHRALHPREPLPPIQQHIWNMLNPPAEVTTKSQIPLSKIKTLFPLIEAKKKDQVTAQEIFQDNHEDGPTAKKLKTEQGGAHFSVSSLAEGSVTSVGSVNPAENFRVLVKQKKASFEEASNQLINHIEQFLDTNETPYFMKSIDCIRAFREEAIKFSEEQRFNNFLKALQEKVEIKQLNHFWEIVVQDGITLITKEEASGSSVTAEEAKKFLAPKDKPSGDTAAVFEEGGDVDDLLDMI


Molecular target: T1, SBSPON-3×Flag (Somatomedin B and Thrombospondin Type 1 Domain Containing), stably overexpressed by lentivirus (human)
Experiment: affinity purification with mass spectrometry; immunoprecipitation in SBSPON-3×Flag overexpressing 5637 and T24 cells; NP-40 lysates, protein A/G agarose beads; bands from SDS-PAGE analysed by mass spectrometry

Row | Molecule | binding
1 | HSPA5, endogenous in bladder cancer cells (from UniProt P11021 19-654) | binds
2 | DSC1 (protein, UniProt Q08554 135-894) RWAPIPASLMENSLGPFPQHVQQIQSDAAQNYTIFYSISGPGVDKEPFNLFYIEKDTGDIFCTRSIDREKYEQFALYGYATTADGYAPEYPLPLIIKIEDDNDNAPYFEHRVTIFTVPENCRSGTSVGKVTATDLDEPDTLHTRLKYKILQQIPDHPKHFSIHPDTGVITTTTPFLDREKCDTYQLIMEVRDMGGQPFGLFNTGTITISLEDENDNPPSFTETSYVTEVEENRIDVEILRMKVQDQDLPNTPHSKAVYKILQGNENGNFIISTDPNTNEGVLCVVKPLNYEVNRQVILQVGVINEAQFSKAASSQTPTMCTTTVTVKIIDSDEGPECHPPVKVIQSQDGFPAGQELLGYKALDPEISSGEGLRYQKLGDEDNWFEINQHTGDLRTLKVLDRESKFVKNNQYNISVVAVDAVGRSCTGTLVVHLDDYNDHAPQIDKEVTICQNNEDFAVLKPVDPDGPENGPPFQFFLDNSASKNWNIEEKDGKTAILRQRQNLDYNYYSVPIQIKDRHGLVATHMLTVRVCDCSTPSECRMKDKSTRDVRPNVILGRWAILAMVLGSVLLLCILFTCFCVTAKRTVKKCFPEDIAQQNLIVSNTEGPGEEVTEANIRLPMQTSNICDTSMSVGTVGGQGIKTQQSFEMVKGGYTLDSNKGGGHQTLESVKGVGQGDTGRYAYTDWQSFTQPRLGEKVYLCGQDEEHKHCEDYVCSYNYEGKGSLAGSVGCCSDRQEEEGLEFLDHLEPKFRTLAKTCIKK | binds
3 | DNAJC10 (protein, UniProt Q8IXB1 33-793) DQDFYSLLGVSKTASSREIRQAFKKLALKLHPDKNPNNPNAHGDFLKINRAYEVLKDEDLRKKYDKYGEKGLEDNQGGQYESWNYYRYDFGIYDDDPEIITLERREFDAAVNSGELWFVNFYSPGCSHCHDLAPTWRDFAKEVDGLLRIGAVNCGDDRMLCRMKGVNSYPSLFIFRSGMAPVKYHGDRSKESLVSFAMQHVRSTVTELWTGNFVNSIQTAFAAGIGWLITFCSKGGDCLTSQTRLRLSGMLDGLVNVGWMDCATQDNLCKSLDITTSTTAYFPPGATLNNKEKNSILFLNSLDAKEIYLEVIHNLPDFELLSANTLEDRLAHHRWLLFFHFGKNENSNDPELKKLKTLLKNDHIQVGRFDCSSAPDICSNLYVFQPSLAVFKGQGTKEYEIHHGKKILYDILAFAKESVNSHVTTLGPQNFPANDKEPWLVDFFAPWCPPCRALLPELRRASNLLYGQLKFGTLDCTVHEGLCNMYNIQAYPTTVVFNQSNIHEYEGHHSAEQILEFIEDLMNPSVVSLTPTTFNELVTQRKHNEVWMVDFYSPWCHPCQVLMPEWKRMARTLTGLINVGSIDCQQYHSFCAQENVQRYPEIRFFPPKSNKAYHYHSYNGWNRDAYSLRIWGLGFLPQVSTDLTPQTFSEKVLQGKNHWVIDFYAPWCGPCQNFAPEFELLARMIKGKVKAGKVDCQAYAQTCQKAGIRAYPTVKFYFYERAKRNFQEEQINTRDAKAIAALISEKLETLRNQGKRNKDEL | binds

Results, then the molecule that gave them:

Row | binding | Molecule
4 | binds | XRCC5 (from UniProt P13010 1-732)
5 | binds | JUP (protein, UniProt P14923 1-745) MEVMNLMEQPIKVTEWQQTYTYDSGIHSGANTCVPSVSSKGIMEEDEACGRQYTLKKTTTYTQGVPPSQGDLEYQMSTTARAKRVREAMCPGVSGEDSSLLLATQVEGQATNLQRLAEPSQLLKSAIVHLINYQDDAELATRALPELTKLLNDEDPVVVTKAAMIVNQLSKKEASRRALMGSPQLVAAVVRTMQNTSDLDTARCTTSILHNLSHHREGLLAIFKSGGIPALVRMLSSPVESVLFYAITTLHNLLLYQEGAKMAVRLADGLQKMVPLLNKNNPKFLAITTDCLQLLAYGNQESKLIILANGGPQALVQIMRNYSYEKLLWTTSRVLKVLSVCPSNKPAIVEAGGMQALGKHLTSNSPRLVQNCLWTLRNLSDVATKQEGLESVLKILVNQLSVDDVNVLTCATGTLSNLTCNNSKNKTLVTQNSGVEALIHAILRAGDKDDITEPAVCALRHLTSRHPEAEMAQNSVRLNYGIPAIVKLLNQPNQWPLVKATIGLIRNLALCPANHAPLQEAAVIPRLVQLLVKAHQDAQRHVAAGTQQPYTDGVRMEEIVEGCTGALHILARDPMNRMEIFRLNTIPLFVQLLYSSVENIQRVAAGVLCELAQDKEAADAIDAEGASAPLMELLHSRNEGTATYAAAVLFRISEDKNPDYRKRVSVELTNSLFKHDPAAWEAAQSMIPINEPYGDDMDATYRPMYSSDVPLDPLEMHMDMDGDYPIDTYSDGLRPPYPTADHMLA
